# The list shows a part of the results.
# B1: CM2 (Cordyceps militaris) (protein)
# chain: MEIAEQNVGKSCAIVNLIPPKEGSNIWTAKQVTIARNLPPNRGTGRHQIDWSFGPVKVTGYVDTTNWEIGVTVSIMGIDLGTVYGNLRDGVVLNVDLFLAKGQVRFYLKNGNEVWVHLSVEIRFDGKFEGDYKIITV
# How the values were obtained:
# Assay in all cases: glycan array binding signal (z-score within array); higher = stronger binding
# Details in all cases: glycan notation: IUPAC condensed, linker removed
# Neu5Ac(a2-3)GalNAc = biological target: Neu5Ac(a2-3)GalNAc
# How it was run: (§1)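 The binding signal is a Z-score computed within each array and averaged over linkers. Arrays of the same protein sequence at different concentrations or buffers were also averaged together. Data originate from 3228 arrays in the Consortium for Functional Glycomics database, kept only where the protein sequence was available.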
# [1] = biological target: Neu5Ac(a2-3)GalNAc(b1-4)GlcNAc
# How it was run: as §1
# [2] = biological target: Neu5Ac(a2-3)[GalNAc(b1-4)]Gal(b1-4)Glc
# How it was run: as §1
# [3] = biological target: Neu5Ac(a2-3)[GalNAc(b1-4)]Gal(b1-4)GlcNAc
# How it was run: as §1
# [4] = biological target: Neu5Ac(a2-3)[GalNAc(b1-4)]Gal(b1-4)GlcNAc(b1-3)GalNAc
# How it was run: as §1
# [5] = biological target: Neu5Ac(a2-3)[Neu5Ac(a2-6)]GalNAc
# How it was run: as §1
# Neu5Ac(a2-6)Gal = biological target: Neu5Ac(a2-6)Gal
# How it was run: as §1
# [6] = biological target: Neu5Ac(a2-6)Gal(b1-3)GlcNAc(b1-3)[Gal(b1-4)GlcNAc(b1-6)]Gal(b1-4)Glc
# How it was run: as §1
# Neu5Ac(a2-6)Gal(b1-4)Glc = biological target: Neu5Ac(a2-6)Gal(b1-4)Glc
# How it was run: as §1
# [7] = biological target: Neu5Ac(a2-6)Gal(b1-4)GlcNAc
# How it was run: as §1
# [8] = biological target: Neu5Ac(a2-6)Gal(b1-4)GlcNAc(b1-2)Man
# How it was run: as §1
# [9] = biological target: Neu5Ac(a2-6)Gal(b1-4)GlcNAc(b1-2)Man(a1-3)Man(b1-4)GlcNAc(b1-4)GlcNAc
# How it was run: as §1
# [10] = biological target: Neu5Ac(a2-6)Gal(b1-4)GlcNAc(b1-2)Man(a1-3)[Gal(b1-4)GlcNAc(b1-2)Man(a1-6)]Man(b1-4)GlcNAc(b1-4)GlcNAc
# How it was run: as §1
# [11] = biological target: Neu5Ac(a2-6)Gal(b1-4)GlcNAc(b1-2)Man(a1-3)[GlcNAc(b1-2)Man(a1-6)]Man(b1-4)GlcNAc(b1-4)GlcNAc
# How it was run: as §1
# [12] = biological target: Neu5Ac(a2-6)Gal(b1-4)GlcNAc(b1-2)Man(a1-3)[GlcNAc(b1-4)][Neu5Ac(a2-6)Gal(b1-4)GlcNAc(b1-2)Man(a1-6)]Man(b1-4)GlcNAc(b1-4)GlcNAc
# How it was run: as §1
# [13] = biological target: Neu5Ac(a2-6)Gal(b1-4)GlcNAc(b1-2)Man(a1-3)[Man(a1-6)]Man(b1-4)GlcNAc(b1-4)GlcNAc
# How it was run: as §1
# [14] = biological target: Neu5Ac(a2-6)Gal(b1-4)GlcNAc(b1-2)Man(a1-3)[Neu5Ac(a2-3)Gal(b1-4)GlcNAc(b1-2)Man(a1-6)]Man(b1-4)GlcNAc(b1-4)GlcNAc
# How it was run: as §1
# [15] = biological target: Neu5Ac(a2-6)Gal(b1-4)GlcNAc(b1-2)Man(a1-3)[Neu5Ac(a2-6)Gal(b1-4)GlcNAc(b1-2)Man(a1-6)]Man(b1-4)GlcNAc(b1-4)GlcNAc
# How it was run: as §1
# [16] = biological target: Neu5Ac(a2-6)Gal(b1-4)GlcNAc(b1-2)Man(a1-3)[Neu5Ac(a2-6)Gal(b1-4)GlcNAc(b1-2)Man(a1-6)]Man(b1-4)GlcNAc(b1-4)[Fuc(a1-6)]GlcNAc
# How it was run: as §1
# [17] = biological target: Neu5Ac(a2-6)Gal(b1-4)GlcNAc(b1-2)Man(a1-6)Man(b1-4)GlcNAc(b1-4)GlcNAc
# How it was run: as §1
# [18] = biological target: Neu5Ac(a2-6)Gal(b1-4)GlcNAc(b1-2)Man(a1-6)[Gal(b1-4)GlcNAc(b1-2)Man(a1-3)]Man(b1-4)GlcNAc(b1-4)GlcNAc
# How it was run: as §1
# [19] = biological target: Neu5Ac(a2-6)Gal(b1-4)GlcNAc(b1-2)Man(a1-6)[GlcNAc(b1-2)Man(a1-3)]Man(b1-4)GlcNAc(b1-4)GlcNAc
# How it was run: as §1
# [20] = biological target: Neu5Ac(a2-6)Gal(b1-4)GlcNAc(b1-2)Man(a1-6)[Man(a1-3)]Man(b1-4)GlcNAc(b1-4)GlcNAc
# How it was run: as §1
# [21] = biological target: Neu5Ac(a2-6)Gal(b1-4)GlcNAc(b1-2)[Neu5Ac(a2-6)Gal(b1-4)GlcNAc(b1-4)]Man(a1-3)[GlcNAc(b1-4)][Neu5Ac(a2-6)Gal(b1-4)GlcNAc(b1-2)[Neu5Ac(a2-6)Gal(b1-4)GlcNAc(b1-6)]Man(a1-6)]Man(b1-4)GlcNAc(b1-4)GlcNAc
# How it was run: as §1
# [22] = biological target: Neu5Ac(a2-6)Gal(b1-4)GlcNAc(b1-2)[Neu5Ac(a2-6)Gal(b1-4)GlcNAc(b1-4)]Man(a1-3)[GlcNAc(b1-4)][Neu5Ac(a2-6)Gal(b1-4)GlcNAc(b1-4)Man(a1-6)]Man(b1-4)GlcNAc(b1-4)GlcNAc
# How it was run: as §1
# [23] = biological target: Neu5Ac(a2-6)Gal(b1-4)GlcNAc(b1-2)[Neu5Ac(a2-6)Gal(b1-4)GlcNAc(b1-6)]Man(a1-6)[Neu5Ac(a2-6)Gal(b1-4)GlcNAc(b1-2)Man(a1-3)][GlcNAc(b1-4)]Man(b1-4)GlcNAc(b1-4)GlcNAc
# How it was run: as §1
# [24] = biological target: Neu5Ac(a2-6)Gal(b1-4)GlcNAc(b1-3)Gal(b1-3)GlcNAc
# How it was run: as §1
# [25] = biological target: Neu5Ac(a2-6)Gal(b1-4)GlcNAc(b1-3)Gal(b1-4)GlcNAc
# How it was run: as §1
# [26] = biological target: Neu5Ac(a2-6)Gal(b1-4)GlcNAc(b1-3)Gal(b1-4)GlcNAc(b1-2)Man(a1-3)[Neu5Ac(a2-6)Gal(b1-4)GlcNAc(b1-3)Gal(b1-4)GlcNAc(b1-2)Man(a1-6)]GalNAc
# How it was run: as §1
# [27] = biological target: Neu5Ac(a2-6)Gal(b1-4)GlcNAc(b1-3)Gal(b1-4)GlcNAc(b1-3)Gal(b1-4)GlcNAc
# How it was run: as §1
# [28] = biological target: Neu5Ac(a2-6)Gal(b1-4)GlcNAc(b1-3)Gal(b1-4)GlcNAc(b1-3)Gal(b1-4)GlcNAc(b1-2)Man(a1-3)[Neu5Ac(a2-6)Gal(b1-4)GlcNAc(b1-3)Gal(b1-4)GlcNAc(b1-3)Gal(b1-4)GlcNAc(b1-2)Man(a1-6)]GalNAc
# How it was run: as §1
# [29] = biological target: Neu5Ac(a2-6)Gal(b1-4)GlcNAc(b1-3)Gal(b1-4)GlcNAc(b1-3)GalNAc
# How it was run: as §1
# [30] = biological target: Neu5Ac(a2-6)Gal(b1-4)GlcNAc(b1-3)Gal(b1-4)GlcNAc(b1-3)[Neu5Ac(a2-6)Gal(b1-4)GlcNAc(b1-3)Gal(b1-4)GlcNAc(b1-6)]GalNAc
# How it was run: as §1
# [31] = biological target: Neu5Ac(a2-6)Gal(b1-4)GlcNAc(b1-3)Gal(b1-4)GlcNAc(b1-6)[Gal(b1-3)]GalNAc
# How it was run: as §1
# [32] = biological target: Neu5Ac(a2-6)Gal(b1-4)GlcNAc(b1-3)Gal(b1-4)[Fuc(a1-3)]GlcNAc(b1-3)Gal(b1-4)[Fuc(a1-3)]GlcNAc
# How it was run: as §1
# [33] = biological target: Neu5Ac(a2-6)Gal(b1-4)GlcNAc(b1-3)GalNAc
# How it was run: as §1
# [34] = biological target: Neu5Ac(a2-6)Gal(b1-4)GlcNAc(b1-3)[Neu5Ac(a2-6)Gal(b1-4)GlcNAc(b1-6)]GalNAc
# How it was run: as §1
# [35] = biological target: Neu5Ac(a2-6)Gal(b1-4)GlcNAc(b1-6)GalNAc
# How it was run: as §1
# [36] = biological target: Neu5Ac(a2-6)Gal(b1-4)GlcNAc(b1-6)[Gal(b1-3)GlcNAc(b1-3)]Gal(b1-4)Glc
# How it was run: as §1
# [37] = biological target: Neu5Ac(a2-6)Gal(b1-4)GlcNAc(b1-6)[Gal(b1-3)]GalNAc
# How it was run: as §1
# [38] = biological target: Neu5Ac(a2-6)Gal(b1-4)GlcNAc6S
# How it was run: as §1
# Neu5Ac(a2-6)GalNAc = biological target: Neu5Ac(a2-6)GalNAc
# How it was run: as §1
# [39] = biological target: Neu5Ac(a2-6)GalNAc(b1-4)GlcNAc
# How it was run: as §1
# [40] = biological target: Neu5Ac(a2-6)GalNAc(b1-4)GlcNAc6S
# How it was run: as §1
# [41] = biological target: Neu5Ac(a2-6)GlcNAc(b1-4)GlcNAc
# How it was run: as §1
binder,measurement,setting,value
B1,glycan array binding signal (z-score),Neu5Ac(a2-3)GalNAc,0.58
same,glycan array binding signal (z-score),[1],0.487
same,glycan array binding signal (z-score),[2],0.858
same,glycan array binding signal (z-score),[3],-0.887
same,glycan array binding signal (z-score),[4],0.919
same,glycan array binding signal (z-score),[5],-0.254
same,glycan array binding signal (z-score),Neu5Ac(a2-6)Gal,1.05
same,glycan array binding signal (z-score),[6],-0.678
same,glycan array binding signal (z-score),Neu5Ac(a2-6)Gal(b1-4)Glc,-1.05
same,glycan array binding signal (z-score),[7],-0.125
same,glycan array binding signal (z-score),[8],2.54
same,glycan array binding signal (z-score),[9],-1.05
same,glycan array binding signal (z-score),[10],-0.596
same,glycan array binding signal (z-score),[11],1.54
same,glycan array binding signal (z-score),[12],-0.495
same,glycan array binding signal (z-score),[13],-0.907
same,glycan array binding signal (z-score),[14],-0.384
same,glycan array binding signal (z-score),[15],-0.511
same,glycan array binding signal (z-score),[16],-0.646
same,glycan array binding signal (z-score),[17],-0.021
same,glycan array binding signal (z-score),[18],0.098
same,glycan array binding signal (z-score),[19],-0.185
same,glycan array binding signal (z-score),[20],-0.151
same,glycan array binding signal (z-score),[21],-0.02
same,glycan array binding signal (z-score),[22],1.04
same,glycan array binding signal (z-score),[23],-0.924
same,glycan array binding signal (z-score),[24],-0.267
same,glycan array binding signal (z-score),[25],-0.874
same,glycan array binding signal (z-score),[26],-1.31
same,glycan array binding signal (z-score),[27],0.418
same,glycan array binding signal (z-score),[28],-0.134
same,glycan array binding signal (z-score),[29],-0.434
same,glycan array binding signal (z-score),[30],0.217
same,glycan array binding signal (z-score),[31],-0.589
same,glycan array binding signal (z-score),[32],-0.117
same,glycan array binding signal (z-score),[33],-0.581
same,glycan array binding signal (z-score),[34],-0.481
same,glycan array binding signal (z-score),[35],0.753
same,glycan array binding signal (z-score),[36],-1.25
same,glycan array binding signal (z-score),[37],1.06
same,glycan array binding signal (z-score),[38],-1.69
same,glycan array binding signal (z-score),Neu5Ac(a2-6)GalNAc,0.447
same,glycan array binding signal (z-score),[39],-0.06
same,glycan array binding signal (z-score),[40],-0.442
same,glycan array binding signal (z-score),[41],0.479

# Reprinted at random: 3 records from the list.
binder,measurement,setting,value
B1,glycan array binding signal (z-score),[6],-0.678
same,glycan array binding signal (z-score),[35],0.753
same,glycan array binding signal (z-score),[41],0.479
